Measurements taken from publication doi:10.1101/2023.01.11.521585.
These are yes or no findings as the source states them, for the method shown. Binding seen in cells or lysates may run through a third protein. Binding calls can cover weak binding; strength is not graded here. Where a sequence is shown, tags or fusion partners need not be part of it.

Molecular target: T1, HA∷G6^7TM (mouse) (UniProt Q6F3F9)
T1 sequence: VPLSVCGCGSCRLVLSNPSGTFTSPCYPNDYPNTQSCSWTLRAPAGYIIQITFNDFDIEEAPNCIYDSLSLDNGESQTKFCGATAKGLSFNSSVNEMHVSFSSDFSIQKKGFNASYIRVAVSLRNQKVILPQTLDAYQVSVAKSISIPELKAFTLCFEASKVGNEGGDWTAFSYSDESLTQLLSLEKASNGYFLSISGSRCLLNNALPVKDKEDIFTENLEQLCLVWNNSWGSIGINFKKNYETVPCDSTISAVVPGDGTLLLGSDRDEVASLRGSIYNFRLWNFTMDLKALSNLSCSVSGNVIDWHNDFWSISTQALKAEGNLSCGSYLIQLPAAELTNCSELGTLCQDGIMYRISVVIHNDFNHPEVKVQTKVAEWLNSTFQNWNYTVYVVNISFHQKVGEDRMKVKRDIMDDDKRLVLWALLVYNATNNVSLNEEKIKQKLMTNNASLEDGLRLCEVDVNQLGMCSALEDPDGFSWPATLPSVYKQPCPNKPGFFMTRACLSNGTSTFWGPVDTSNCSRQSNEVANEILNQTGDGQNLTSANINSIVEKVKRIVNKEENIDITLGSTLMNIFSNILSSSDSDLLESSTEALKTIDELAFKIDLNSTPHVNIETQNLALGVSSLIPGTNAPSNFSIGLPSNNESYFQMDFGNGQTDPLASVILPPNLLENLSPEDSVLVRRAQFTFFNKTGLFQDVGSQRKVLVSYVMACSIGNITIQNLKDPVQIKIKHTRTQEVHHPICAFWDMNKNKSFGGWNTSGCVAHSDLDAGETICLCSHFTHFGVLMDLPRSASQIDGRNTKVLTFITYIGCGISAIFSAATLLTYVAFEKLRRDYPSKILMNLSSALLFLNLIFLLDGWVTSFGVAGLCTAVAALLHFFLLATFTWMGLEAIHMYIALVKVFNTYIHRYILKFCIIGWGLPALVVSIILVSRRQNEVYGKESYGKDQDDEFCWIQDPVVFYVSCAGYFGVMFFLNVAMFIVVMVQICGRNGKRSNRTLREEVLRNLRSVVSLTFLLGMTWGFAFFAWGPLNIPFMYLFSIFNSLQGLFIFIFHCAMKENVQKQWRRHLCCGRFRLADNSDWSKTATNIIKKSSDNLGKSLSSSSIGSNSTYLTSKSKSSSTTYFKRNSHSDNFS
Test: co-IP

Substance: G6^1TM∷V5 (mouse)
- binding: binds
